Reference: patent US11591368B2, “Peptides for cancer treatment” (CHUNG SHAN MEDICAL UNIVERSITY, priority 2017, dated 2023)
Entries after “also recorded” stand apart in the source; their conditions may differ. At least one peptide structure holds a part that was inferred or is arguable (an end, a ring closure or a residue). For some assays here: At least one structure is not confirmed: it was looked up by name or label, or the drawing left a doubt. Where a SMILES comes first, the peptide text is derived from it. The star is where a group is joined. Fmoc = O=C(OCC1c2ccccc2-c2ccccc21)*

Assays:
CL1-5 cells [1] = assay: Cell proliferation assay in CL1-5 cells; type: cell-based
Method: The peptides described below were Fmoc modified and dissolved in DMSO and […] and then used in cell proliferation assay. CL1-5 cells were cultured to 80% confluence in RPMI medium containing 10% FBS. After detachment, 3×10^4[…]cells were seeded onto 12-well plates. After 16 h of incubation, cells were either harvested before treatment (designated as 0 h), or treated with LT peptides for 24 h (designated 24 h), and viable cells were counted. Relative fold-change in cell number or percent increase in cell growth (%) was calculated by following formula: (Cell number24h−Cell number0h)/(Cell number of control24h−Cell number of control0h).

H1355 = assay: Cell proliferation assay in H1355 lung cancer cell line; type: cell-based; conditions: H1355, FIG. 4
H460 = assay: Cell proliferation assay in H460 lung cancer cell line; type: cell-based; conditions: H460, FIG. 4
H1299 = assay: Cell proliferation assay in H1299 lung cancer cell line; type: cell-based; conditions: H1299, FIG. 4
A549 = assay: Cell proliferation assay in A549 lung cancer cell line; type: cell-based; conditions: A549, FIG. 4
CL1-5 cells [2] = assay: Cell invasion assay (Matrigel-coated modified Boyden chamber) in CL1-5 cells; type: cell-based; conditions: Fmoc peptides, 24 h, FIG. 5
Method: Fmoc-LT1-3 peptides were used in cell invasion assay. A 24-well modified Boyden chamber with a polycarbonate membrane (8-μm pore size) was used for in vitro invasion assays. […] CL1-5 cells (3×10^4 cells/well) in RPMI medium with various concentrations of peptide were seeded onto the upper chamber. […] After 24 h of incubation, the cells were fixed with ice-cold 100% methanol and stained with 10% Giemsa. Following staining, cells on the upper side of the membrane were removed with a cotton swab. The number of invaded cells attached to the lower surface of the polycarbonate membranes was counted under a light microscope. All experiments were performed in triplicate.

CL1-5 lung cancer cells = assay: Tumor growth in xenograft animal model; type: in vivo; conditions: for animals that developed tumor on the 18th day: in DMSO/PBS, day 18; for tumor weight: day 39, compared to control group, FIG. 8
Method: Six-week old immune deficient BALB/CAnN.Cg-Foxn1nu/CrlBltw mice were housed in individual ventilated chambers (IVC). A total of 2×10^6 CL1-5 lung cancer cells in 100 μL PBS were mixed with 100 μL of 10× Matrigel. The lung cancer cells/Matrigel mix was injected subcutaneously to the lower back of the mice. Three days later, the mice were treated with 0, 10, 20, or 30 nmol of Fmoc-LT-1-3 subcutaneously everyday. The Fmoc-LT-1-3 peptide was dissolved in 100% DMSO and diluted to the desired concentration in PBS from day 3 to day 17. On the 18th day, we observed that 80% of control group animal, 40% of 10 nmol group animal, 20% of 20 nmol group animal, and 40% of 30 nmol group animal developed tumor. Percent of tumor free animal increased with increasing level of Fmoc-LT1-3 between 10 nmol and 20 nmol. […] This phenomenon may be due to lower solubility of Fmoc-LT1-3 at higher concentration. We thus decided to replace the solvent from DMSO with γ-CD, and diluted the peptide to the desired concentration for injection on the 18th day and thereafter. The volume of tumor was measured periodically. […] On the 39th day, animals were sacrificed. The tumor and organs were weighted, fixed and embedded in paraffin. Embedded tissue were sectioned and stained with hematoxylin-eosin for histologic analysis.

CL1-5 cells [3] = assay: Lung metastasis of CL1-5 cells injected through tail vein; type: in vivo, mice; conditions: 20 nmol s.c. daily in 0.5% DMSO or γ-CD, day 56, FIG. 10

Row | Compound | growth inhibition in lung cancer cell lines (CL1-5 cells [1]; CL1-5, FIG. 4) | growth inhibition in lung cancer cell lines (H1355) | growth inhibition in lung cancer cell lines (H460) | growth inhibition in lung cancer cell lines (H1299) | growth inhibition in lung cancer cell lines (A549) | cell invasion inhibition (CL1-5 cells [2]) | animals that developed tumor on the 18th day (CL1-5 lung cancer cells; 10 nmol subcutaneously everyday) [%] | animals that developed tumor on the 18th day (CL1-5 lung cancer cells; 20 nmol subcutaneously everyday) [%] | tumor weight (CL1-5 lung cancer cells; 20 nmol) | animals that developed tumor on the 18th day (CL1-5 lung cancer cells; 30 nmol subcutaneously everyday) [%] | tumor growth (volume of tumor) (CL1-5 lung cancer cells; 30 nmol, after replacement of the solvent with γ-CD, FIG. 7) | tumor weight (CL1-5 lung cancer cells; 30 nmol) | lung metastasis (metastatic nodules on the surface of lungs) (CL1-5 cells [3]) | LT-peptide-mediated growth inhibition together with JNK inhibitor (SP600125) (CL1-5 cells [1]; CL1-5 cells, FIG. 25)
1 | CC[C@H](C)[C@H](NC(=O)[C@H](Cc1c[nH]cn1)NC(=O)[C@H](Cc1ccccc1)NC(=O)OCC1c2ccccc2-c2ccccc21)C(=O)N[C@H](C(=O)N[C@@H](CCC(=O)O)C(=O)N[C@@H](CC(C)C)C(=O)N[C@@H](CC(C)C)C(=O)N[C@@H](C)C(=O)O)C(C)C [Fmoc-LT1-3] (Fmoc-FHIVELLA-OH; N-terminus and C-terminus assumed) | greatly inhibited | greatly inhibited | greatly inhibited | partially inhibited | no effect | inhibited cell invasion; also recorded: better invasion inhibition capability than Fmoc-LT-A3 | 40 | 20 | significantly inhibited tumor weight | 40 | significant suppressed tumor growth | significantly inhibited tumor weight | significantly inhibited metastasis | 
2 | Oc1c2ccccc2c2c3c(cccc13)N=N2 [Sp600125, reference compound] |  |  |  |  |  |  |  |  |  |  |  |  |  | enhances growth inhibition activity
